From patent US20020016346A1, “Method for enhancing outflow of aqueous humor in treatment of glaucoma” (The Regents University of California, a California …, priority 1994, published 2002)
For some of these results: At least one compound was matched to its structure with a doubt left. Some of these results come from one statement about several compounds together.

Tests used:
Na—K—Cl cotransport = biological target: T1, Na—K—Cl cotransport (Bos taurus, UniProt F1MS08); assay: K influx (86Rb) in bovine TM cell monolayers; format: cell-based; details: bovine TM cells; VP 100 nM, NE 10 μM, Ach 1 μM, cAMP 50 μM, cGMP 50 μM, A23187 1 μM, PMA 10 nM, Ca-free medium plus 5 μM BAPTA-AM; control 25.6 ± 0.71
T1 sequence (F1MS08 1-1204): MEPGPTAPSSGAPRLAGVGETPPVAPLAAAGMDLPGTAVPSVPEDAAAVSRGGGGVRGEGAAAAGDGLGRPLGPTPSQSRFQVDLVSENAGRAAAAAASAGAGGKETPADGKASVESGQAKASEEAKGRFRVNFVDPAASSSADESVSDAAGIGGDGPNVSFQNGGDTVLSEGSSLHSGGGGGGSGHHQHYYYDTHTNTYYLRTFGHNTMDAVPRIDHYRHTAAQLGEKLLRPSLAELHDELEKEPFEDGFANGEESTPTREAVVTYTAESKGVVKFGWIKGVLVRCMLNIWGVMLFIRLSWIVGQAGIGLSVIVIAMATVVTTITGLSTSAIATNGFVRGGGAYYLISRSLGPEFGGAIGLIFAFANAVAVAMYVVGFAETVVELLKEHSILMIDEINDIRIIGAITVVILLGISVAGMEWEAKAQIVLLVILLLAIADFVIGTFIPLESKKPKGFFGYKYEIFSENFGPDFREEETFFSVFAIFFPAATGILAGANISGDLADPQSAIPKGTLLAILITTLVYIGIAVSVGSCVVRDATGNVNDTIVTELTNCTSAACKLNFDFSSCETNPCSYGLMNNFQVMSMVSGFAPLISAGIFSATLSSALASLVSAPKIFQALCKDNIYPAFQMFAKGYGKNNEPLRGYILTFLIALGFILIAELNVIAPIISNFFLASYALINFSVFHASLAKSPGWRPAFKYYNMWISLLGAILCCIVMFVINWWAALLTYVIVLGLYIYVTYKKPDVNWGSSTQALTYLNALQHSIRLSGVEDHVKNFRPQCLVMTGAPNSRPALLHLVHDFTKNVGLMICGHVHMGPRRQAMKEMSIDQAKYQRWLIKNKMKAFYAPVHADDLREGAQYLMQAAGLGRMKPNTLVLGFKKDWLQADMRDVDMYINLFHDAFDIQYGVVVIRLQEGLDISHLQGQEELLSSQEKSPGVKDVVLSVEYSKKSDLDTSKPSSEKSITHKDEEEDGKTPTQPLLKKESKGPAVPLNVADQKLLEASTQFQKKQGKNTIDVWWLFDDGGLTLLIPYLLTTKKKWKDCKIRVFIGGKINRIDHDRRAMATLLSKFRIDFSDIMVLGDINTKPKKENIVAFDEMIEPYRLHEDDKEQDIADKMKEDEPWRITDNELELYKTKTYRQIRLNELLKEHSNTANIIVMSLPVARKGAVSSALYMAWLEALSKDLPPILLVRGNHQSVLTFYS
Method: Details of this method have been published previously (O'Donnell, M. E., supra, 1989). Briefly, bovine or human TM cell monolayers on 24 well plates were equilibrated for 10 minutes at 37° C. in a Hepes-buffered minimal essential medium (MEM) containing (in mM): 144 Na, 147 Cl, 5.8 K, 1.2 Ca, 4.2 HCO3, 0.4 H2PO4, […], 0.4 SO4, 5.6 glucose and 20 Hepes. […] The assay medium also contained ^86Rb (1 μCi/ml) (Dupont New England Nuclear, Boston, Mass.). The assay was terminated by rinsing the wells with ice-cold isotonic MgCl2, then extracting the contents with 0.2% sodium dodecyl sulfate (SDS), and determining the amount of radioactive contents by liquid scintillation. Osmolarities of all preincubation and assay media were verified by osmometry (Model 3W2, Advanced Instruments, Norwood, Mass.).
The effects of hormones, neurotransmitters and second messengers on Bumetanide-sensitive K influx of bovine trabecular meshwork cells were assessed using the procedures of Example 1. […] The control is the Hepes-buffered medium containing Na, K, Cl, CA and other ions as described in Example 1B. […] The data represent the mean values±SEM of quadruplicate determinations from two experiments.

Na+2Cl−K+ co-transporter = biological target: T2, Na+2Cl−K+ co-transporter (Oryctolagus cuniculus, UniProt P55015); assay: Inhibition of short circuit current in perfused cortical thick ascending limb of the loop of Henle; format: cell-based, rabbit; details: concentration blocking 50% of short circuit current
T2 construct: cotransporter system found in the cortical thick ascending limbs of the loop of Henle of mammals; from tissue; host or cells: dissected, perfused cortical thick ascending limb tubules of rabbit kidney
T2 sequence (P55015 1-1099): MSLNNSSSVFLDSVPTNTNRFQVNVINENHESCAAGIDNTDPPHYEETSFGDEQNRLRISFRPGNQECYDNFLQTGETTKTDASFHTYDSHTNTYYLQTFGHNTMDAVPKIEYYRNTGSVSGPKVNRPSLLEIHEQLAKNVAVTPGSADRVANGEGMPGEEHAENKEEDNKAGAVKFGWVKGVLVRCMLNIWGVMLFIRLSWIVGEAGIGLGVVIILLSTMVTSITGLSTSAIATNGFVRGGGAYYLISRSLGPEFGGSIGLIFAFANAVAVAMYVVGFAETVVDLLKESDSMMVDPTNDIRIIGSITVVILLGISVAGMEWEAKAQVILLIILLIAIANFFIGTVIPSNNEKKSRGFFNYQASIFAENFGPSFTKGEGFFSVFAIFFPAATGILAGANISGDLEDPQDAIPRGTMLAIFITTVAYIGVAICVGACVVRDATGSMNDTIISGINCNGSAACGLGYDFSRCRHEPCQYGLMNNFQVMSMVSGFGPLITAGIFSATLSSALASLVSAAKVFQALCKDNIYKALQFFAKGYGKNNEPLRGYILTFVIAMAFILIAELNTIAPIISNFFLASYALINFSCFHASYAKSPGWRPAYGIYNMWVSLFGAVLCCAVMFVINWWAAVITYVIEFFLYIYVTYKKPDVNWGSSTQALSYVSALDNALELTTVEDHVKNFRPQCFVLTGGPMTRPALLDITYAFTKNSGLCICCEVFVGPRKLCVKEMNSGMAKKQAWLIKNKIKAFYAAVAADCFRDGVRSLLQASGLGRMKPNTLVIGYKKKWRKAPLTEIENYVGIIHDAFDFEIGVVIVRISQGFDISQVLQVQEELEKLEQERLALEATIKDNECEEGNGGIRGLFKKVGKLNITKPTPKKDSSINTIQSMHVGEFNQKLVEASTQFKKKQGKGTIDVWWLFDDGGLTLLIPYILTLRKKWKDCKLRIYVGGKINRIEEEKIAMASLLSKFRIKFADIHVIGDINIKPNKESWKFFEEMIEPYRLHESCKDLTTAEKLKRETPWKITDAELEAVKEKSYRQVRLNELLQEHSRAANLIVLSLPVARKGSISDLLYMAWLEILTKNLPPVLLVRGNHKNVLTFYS
Excerpt: B. Burg et al. (Am J. Physiol. 210:1293-1298, 1966) as modified by […] Arch. 390:30-37, 1981) and […] et al. (Pflüger's Arch. 389:175-176, 1981), both of which are incorporated herein by reference in their entireties. In brief, this in vitro test uses the Na-2Cl^- K^+ cotransporter system found in the cortical thick ascending limbs of the loop of Henle of mammals, particularly rabbits, for example, female white New Zealand rabbits. The tubules are dissected and perfused according to the known techniques, but with the rate of perfusion through the lumen kept high (10-20 nl/min) to prevent changes in the ionic composition of the perfusate along the perfused tubule. As control perfusate, a solution containing (mM): NaCl 145; […] KH2PO4 0.4; MgCl2 1; Ca gluconate 1.3; and glucose 5 is used on both sides of the epithelium with pH adjusted to 7.4 The transepithelial potential (Vtc) is recorded continuously on both ends of the tubule. […] The ratio of both values ([…] the equivalent short circuit current Itc. There is a direct relationship between the decrease of Itc and the inhibition of the Na^+2Cl^-K^+ co-transporter by contact with the test compound ([…] et al., Klin. Wochenschr. 61:1019-1027, 1983). For each drug under study, dose-response curves are established by adding compounds at various concentrations to the luminal perfusate with at least three determinations for each concentration. […] Details of this method have been published previously in M. E. O'Donnell, J. Biol. Chem. 264:11559-11566, 1991, which is incorporated herein by reference in its entirety. An illustration of the use of this method is found in Example 1B of this application.

Row | Structure (SMILES) | BUMETANIDE-SENSITIVE K INFLUX (Na—K—Cl cotransport) [μmol/g protein/min] | IC50 (Na+2Cl−K+ co-transporter)
1 | CC(=O)OCC[N+](C)(C)C [Ach, acetylcholine] | 20.2 ± 1.26 | –
2 | O=C(NS(=O)(=O)c1cnccc1NC1CCCCC1)N1CCCCC1 [Compound 21] | – | very active
3 | O=C(NS(=O)(=O)c1cnccc1NC1CCCCCC1)N1CCCCC1 [Compound 22] | – | very active
4 | O=C(NS(=O)(=O)c1cnccc1NC1CCCCCCC1)N1CCCCC1 [Compound 23] | – | very active
